The supplement of paper PMC6411743
± gives the standard deviation of the averaged measurements. This is a selection; strong and weak results do not stand in their true shares.

Amino acid sequences for entries named in this document (tags omitted). A change or cut given only in a name is not applied to a line headed by its entry.
UniProt Q9NUJ3: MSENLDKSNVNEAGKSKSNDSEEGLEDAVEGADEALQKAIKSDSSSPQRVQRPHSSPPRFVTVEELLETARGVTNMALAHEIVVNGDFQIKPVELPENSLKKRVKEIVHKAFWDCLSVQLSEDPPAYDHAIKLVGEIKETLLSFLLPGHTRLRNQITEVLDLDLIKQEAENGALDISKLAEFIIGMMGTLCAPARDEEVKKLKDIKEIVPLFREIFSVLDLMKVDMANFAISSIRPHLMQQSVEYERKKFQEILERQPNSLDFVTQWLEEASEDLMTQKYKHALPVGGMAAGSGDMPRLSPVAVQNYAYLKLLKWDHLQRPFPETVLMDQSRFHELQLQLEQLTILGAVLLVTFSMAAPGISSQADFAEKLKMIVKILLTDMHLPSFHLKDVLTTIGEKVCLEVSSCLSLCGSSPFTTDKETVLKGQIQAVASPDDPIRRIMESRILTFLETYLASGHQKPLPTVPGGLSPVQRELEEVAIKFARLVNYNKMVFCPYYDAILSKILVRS
UniProt O00559: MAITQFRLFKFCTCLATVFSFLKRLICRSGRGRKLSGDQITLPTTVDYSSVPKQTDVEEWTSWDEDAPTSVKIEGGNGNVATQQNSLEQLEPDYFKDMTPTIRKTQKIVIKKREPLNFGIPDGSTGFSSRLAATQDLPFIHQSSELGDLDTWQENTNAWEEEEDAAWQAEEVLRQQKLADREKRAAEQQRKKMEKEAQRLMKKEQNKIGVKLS
UniProt Q15843, whole entry: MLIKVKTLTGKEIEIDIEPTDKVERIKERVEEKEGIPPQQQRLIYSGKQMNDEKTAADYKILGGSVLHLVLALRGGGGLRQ
UniProt Q9UIF7: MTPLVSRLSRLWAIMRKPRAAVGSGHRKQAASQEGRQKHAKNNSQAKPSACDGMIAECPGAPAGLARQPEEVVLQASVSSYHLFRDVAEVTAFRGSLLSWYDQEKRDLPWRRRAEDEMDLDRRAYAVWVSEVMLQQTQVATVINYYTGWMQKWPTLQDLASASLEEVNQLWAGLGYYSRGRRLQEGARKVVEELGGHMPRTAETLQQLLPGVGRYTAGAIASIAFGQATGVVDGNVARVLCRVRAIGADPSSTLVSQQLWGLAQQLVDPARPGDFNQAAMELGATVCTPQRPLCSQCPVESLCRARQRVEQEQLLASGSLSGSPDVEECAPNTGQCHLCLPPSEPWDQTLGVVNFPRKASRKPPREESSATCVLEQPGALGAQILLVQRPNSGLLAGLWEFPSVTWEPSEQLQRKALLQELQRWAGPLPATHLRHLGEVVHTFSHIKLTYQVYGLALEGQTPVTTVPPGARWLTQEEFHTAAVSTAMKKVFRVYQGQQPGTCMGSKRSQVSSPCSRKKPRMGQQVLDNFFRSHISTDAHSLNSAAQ
UniProt Q9UIF9: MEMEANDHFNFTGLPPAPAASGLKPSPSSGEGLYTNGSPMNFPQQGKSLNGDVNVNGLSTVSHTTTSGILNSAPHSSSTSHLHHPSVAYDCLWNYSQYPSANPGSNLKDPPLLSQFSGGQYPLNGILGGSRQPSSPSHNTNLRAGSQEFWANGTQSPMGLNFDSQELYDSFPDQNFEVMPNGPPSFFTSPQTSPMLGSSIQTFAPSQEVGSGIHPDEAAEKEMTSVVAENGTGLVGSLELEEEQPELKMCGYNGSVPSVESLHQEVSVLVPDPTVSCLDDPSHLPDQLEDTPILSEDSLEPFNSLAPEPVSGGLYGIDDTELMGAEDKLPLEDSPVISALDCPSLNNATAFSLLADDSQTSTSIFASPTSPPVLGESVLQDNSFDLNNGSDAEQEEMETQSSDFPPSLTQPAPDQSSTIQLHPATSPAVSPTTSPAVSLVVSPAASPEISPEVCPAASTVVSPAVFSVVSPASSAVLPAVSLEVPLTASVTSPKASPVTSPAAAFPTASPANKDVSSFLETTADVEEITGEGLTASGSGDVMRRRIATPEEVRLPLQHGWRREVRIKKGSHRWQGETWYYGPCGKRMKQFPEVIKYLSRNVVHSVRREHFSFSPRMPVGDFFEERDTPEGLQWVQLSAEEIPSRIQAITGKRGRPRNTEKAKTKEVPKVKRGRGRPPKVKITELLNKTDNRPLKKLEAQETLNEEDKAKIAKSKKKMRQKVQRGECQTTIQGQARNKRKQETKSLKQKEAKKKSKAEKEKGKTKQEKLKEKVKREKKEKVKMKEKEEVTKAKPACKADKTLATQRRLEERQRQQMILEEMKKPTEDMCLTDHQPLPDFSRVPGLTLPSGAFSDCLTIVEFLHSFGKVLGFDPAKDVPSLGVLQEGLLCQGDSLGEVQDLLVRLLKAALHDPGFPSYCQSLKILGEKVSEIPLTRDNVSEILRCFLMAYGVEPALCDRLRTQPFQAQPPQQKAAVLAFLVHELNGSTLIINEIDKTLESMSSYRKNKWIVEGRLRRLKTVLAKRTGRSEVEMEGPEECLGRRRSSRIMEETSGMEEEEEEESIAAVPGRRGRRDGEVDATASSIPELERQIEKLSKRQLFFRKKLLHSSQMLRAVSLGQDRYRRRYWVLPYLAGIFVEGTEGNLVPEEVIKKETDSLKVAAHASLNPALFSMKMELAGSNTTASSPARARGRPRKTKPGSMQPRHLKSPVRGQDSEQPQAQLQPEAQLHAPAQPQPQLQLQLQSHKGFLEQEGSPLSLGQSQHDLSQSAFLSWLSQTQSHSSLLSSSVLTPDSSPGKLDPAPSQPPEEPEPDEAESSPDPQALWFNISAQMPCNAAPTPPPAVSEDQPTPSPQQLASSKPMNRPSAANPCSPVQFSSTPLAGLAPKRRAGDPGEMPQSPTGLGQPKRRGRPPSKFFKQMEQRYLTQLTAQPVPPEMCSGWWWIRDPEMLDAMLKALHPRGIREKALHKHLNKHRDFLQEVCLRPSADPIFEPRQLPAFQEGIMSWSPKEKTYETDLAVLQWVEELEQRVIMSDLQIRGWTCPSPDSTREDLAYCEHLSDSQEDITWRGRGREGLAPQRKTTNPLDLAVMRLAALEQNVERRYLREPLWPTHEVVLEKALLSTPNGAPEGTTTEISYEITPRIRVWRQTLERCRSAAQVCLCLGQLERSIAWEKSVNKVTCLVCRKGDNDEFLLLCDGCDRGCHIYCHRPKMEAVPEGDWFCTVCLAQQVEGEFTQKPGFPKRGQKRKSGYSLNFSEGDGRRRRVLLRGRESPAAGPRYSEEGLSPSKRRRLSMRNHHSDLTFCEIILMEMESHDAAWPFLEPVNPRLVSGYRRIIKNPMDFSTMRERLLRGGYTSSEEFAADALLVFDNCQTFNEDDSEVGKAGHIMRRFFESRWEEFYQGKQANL
UniProt P61923: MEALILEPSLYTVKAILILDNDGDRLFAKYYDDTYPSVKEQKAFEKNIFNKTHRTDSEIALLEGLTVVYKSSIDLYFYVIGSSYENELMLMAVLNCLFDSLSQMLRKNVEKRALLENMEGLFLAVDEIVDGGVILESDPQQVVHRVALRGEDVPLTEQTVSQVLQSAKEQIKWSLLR
UniProt P61916: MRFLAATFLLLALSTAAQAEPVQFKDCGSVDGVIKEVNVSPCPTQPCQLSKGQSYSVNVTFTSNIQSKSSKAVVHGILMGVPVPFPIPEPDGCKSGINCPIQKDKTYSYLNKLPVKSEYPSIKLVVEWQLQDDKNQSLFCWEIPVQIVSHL
UniProt Q9NZN5: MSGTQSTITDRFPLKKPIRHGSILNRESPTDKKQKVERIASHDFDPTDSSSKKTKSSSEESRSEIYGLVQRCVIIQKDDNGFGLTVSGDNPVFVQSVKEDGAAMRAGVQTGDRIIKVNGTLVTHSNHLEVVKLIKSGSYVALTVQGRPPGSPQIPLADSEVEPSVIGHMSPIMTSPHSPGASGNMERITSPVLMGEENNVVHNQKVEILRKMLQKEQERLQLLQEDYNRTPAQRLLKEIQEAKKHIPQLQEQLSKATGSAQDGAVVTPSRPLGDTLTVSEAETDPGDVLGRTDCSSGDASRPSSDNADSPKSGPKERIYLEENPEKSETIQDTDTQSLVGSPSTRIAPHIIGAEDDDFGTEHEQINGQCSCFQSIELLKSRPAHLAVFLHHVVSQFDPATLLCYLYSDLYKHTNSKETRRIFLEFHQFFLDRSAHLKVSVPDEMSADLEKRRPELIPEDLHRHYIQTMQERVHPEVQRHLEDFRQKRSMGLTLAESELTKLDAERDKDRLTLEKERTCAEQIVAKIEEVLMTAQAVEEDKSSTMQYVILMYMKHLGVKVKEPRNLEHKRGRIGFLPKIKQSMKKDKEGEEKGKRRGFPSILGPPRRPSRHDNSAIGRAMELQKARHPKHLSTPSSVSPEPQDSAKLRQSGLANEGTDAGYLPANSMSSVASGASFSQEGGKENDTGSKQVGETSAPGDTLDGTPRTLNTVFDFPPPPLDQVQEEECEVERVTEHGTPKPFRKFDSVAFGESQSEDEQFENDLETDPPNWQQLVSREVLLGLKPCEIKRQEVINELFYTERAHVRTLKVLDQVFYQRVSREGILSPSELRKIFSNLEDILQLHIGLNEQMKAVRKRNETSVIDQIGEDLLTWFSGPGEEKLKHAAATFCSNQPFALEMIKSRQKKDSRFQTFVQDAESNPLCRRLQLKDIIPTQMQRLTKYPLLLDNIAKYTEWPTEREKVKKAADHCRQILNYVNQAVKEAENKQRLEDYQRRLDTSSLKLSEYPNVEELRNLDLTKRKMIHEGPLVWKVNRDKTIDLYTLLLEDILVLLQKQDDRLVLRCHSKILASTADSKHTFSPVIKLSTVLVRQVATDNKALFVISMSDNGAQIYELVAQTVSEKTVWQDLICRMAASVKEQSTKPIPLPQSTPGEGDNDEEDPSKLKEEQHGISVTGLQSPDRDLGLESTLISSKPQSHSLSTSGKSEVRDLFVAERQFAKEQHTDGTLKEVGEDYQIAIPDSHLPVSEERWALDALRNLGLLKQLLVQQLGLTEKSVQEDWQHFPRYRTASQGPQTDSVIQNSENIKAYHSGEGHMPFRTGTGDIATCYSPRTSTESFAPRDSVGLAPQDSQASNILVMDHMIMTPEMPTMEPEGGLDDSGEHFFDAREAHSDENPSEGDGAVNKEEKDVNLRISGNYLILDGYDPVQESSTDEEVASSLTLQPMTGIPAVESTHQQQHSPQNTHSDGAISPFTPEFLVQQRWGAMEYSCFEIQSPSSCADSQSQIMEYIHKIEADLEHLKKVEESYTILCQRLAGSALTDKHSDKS
UniProt Q7KZI7: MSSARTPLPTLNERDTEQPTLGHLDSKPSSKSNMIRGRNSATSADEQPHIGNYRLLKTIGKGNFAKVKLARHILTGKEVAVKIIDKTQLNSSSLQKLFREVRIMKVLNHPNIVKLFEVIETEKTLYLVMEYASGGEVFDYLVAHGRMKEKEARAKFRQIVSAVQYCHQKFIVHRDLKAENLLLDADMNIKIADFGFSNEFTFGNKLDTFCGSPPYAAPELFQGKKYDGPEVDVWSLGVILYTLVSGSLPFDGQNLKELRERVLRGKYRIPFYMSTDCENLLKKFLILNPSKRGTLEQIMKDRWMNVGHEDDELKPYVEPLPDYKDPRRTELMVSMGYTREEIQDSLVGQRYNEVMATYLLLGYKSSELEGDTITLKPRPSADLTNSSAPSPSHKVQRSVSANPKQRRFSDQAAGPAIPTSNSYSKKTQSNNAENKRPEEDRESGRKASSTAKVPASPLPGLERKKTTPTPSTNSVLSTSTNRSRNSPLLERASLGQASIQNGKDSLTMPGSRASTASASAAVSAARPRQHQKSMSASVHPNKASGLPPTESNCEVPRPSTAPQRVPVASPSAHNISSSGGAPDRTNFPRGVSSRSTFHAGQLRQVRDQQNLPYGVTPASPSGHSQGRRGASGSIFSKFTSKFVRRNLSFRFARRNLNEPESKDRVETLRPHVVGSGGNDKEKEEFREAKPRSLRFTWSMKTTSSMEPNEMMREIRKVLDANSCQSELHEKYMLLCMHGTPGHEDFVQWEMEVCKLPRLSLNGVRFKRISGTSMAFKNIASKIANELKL
UniProt Q9NYL4: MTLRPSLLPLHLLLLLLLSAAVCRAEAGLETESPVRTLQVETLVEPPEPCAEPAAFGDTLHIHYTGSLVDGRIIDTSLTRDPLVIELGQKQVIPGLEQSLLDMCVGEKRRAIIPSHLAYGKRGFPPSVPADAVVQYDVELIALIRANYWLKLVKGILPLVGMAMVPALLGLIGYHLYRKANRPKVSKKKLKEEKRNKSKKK
UniProt Q86X53: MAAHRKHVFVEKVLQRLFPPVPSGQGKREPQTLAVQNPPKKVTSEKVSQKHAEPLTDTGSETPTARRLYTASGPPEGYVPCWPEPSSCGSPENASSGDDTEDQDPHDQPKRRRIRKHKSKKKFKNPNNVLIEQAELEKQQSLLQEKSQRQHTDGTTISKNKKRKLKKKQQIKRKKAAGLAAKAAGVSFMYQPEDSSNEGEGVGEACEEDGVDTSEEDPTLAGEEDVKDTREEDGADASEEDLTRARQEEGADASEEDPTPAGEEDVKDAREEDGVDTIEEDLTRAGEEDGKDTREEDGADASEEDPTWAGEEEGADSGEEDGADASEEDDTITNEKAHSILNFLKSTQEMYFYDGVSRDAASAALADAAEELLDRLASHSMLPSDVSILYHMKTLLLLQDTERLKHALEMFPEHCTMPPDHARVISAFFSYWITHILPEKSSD

Compound: Nc1ncnc2c1ncn2[C@@H]1O[C@H](COP(=O)(O)OP(=O)(O)OP(=O)(O)O)[C@@H](O)[C@H]1O [adenosine triphosphate]
Test: NP40-soluble protein abundance relative to vehicle (solubility fold change) (ratio); higher = more soluble protein in presence of ATP
How it was run: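 Eight concentrations, 0.1 to 10 mM, were tested on Jurkat crude lysate for 10 min at room temperature and then 3 min at 37 °C, in three independent experiments. The lysate was solubilised with 0.8% NP40 and benzonase, ultracentrifuged, and the supernatant TMT-labelled for LC-MS/MS. Each value is the fold change against the detergent-processed vehicle in its own replicate, from vsn-normalised intensities.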

Target	NP40-soluble protein abundance (concentration: 1mM)	NP40-soluble protein abundance (concentration: 2mM)	NP40-soluble protein abundance (concentration: 4mM)	NP40-soluble protein abundance (concentration: 6mM)	NP40-soluble protein abundance (concentration: 8mM)	NP40-soluble protein abundance (concentration: 10mM)
E9PJ55 (UniProt Q9NUJ3)	1.08 ± 0.15	1.04 ± 0.15	1.05 ± 0.11	1.01 ± 0.13	1.03 ± 0.1	0.999 ± 0.12
E9PL24 and related entries (UniProt Q5VU43)	0.985 ± 0.043	0.942 ± 0.032	0.978 ± 0.05	0.951 ± 0.12	0.939 ± 0.056	0.935 ± 0.049
E7ERS3 and related entries (UniProt Q86VM9)	1.07 ± 0.12	1.12 ± 0.12	1.16 ± 0.16	1.3 ± 0.19	1.21 ± 0.14	1.26 ± 0.13
E9PN10 and related entries (UniProt O00559)	0.96 ± 0.11	0.994 ± 0.094	0.974 ± 0.07	0.956 ± 0.065	1 ± 0.064	0.93 ± 0.16
F8WEA6 and related entries (UniProt O75439)	0.972 ± 0.048	0.989 ± 0.038	0.963 ± 0.05	0.983 ± 0.085	0.968 ± 0.062	0.957 ± 0.067
E9PL57 and related entries (UniProt Q15843)	0.89 ± 0.16	0.868 ± 0.075	0.806 ± 0.11	0.914 ± 0.098	0.827 ± 0.078	0.763 ± 0.082
E7ETP9 and related entries (UniProt Q9UQV4)	0.9 ± 0.048	0.94 ± 0.015	0.923 ± 0.02	0.937 ± 0.027	0.87 ± 0.028	0.841 ± 0.074
E5KP25 and related entries (UniProt Q9UIF7)	0.864 ± 0.091	0.853 ± 0.015	0.893 ± 0.1	0.832 ± 0.03	0.805 ± 0.03	0.864 ± 0.018
F2Z2W7 and related entries (UniProt Q8IZ69)	1.03 ± 0.066	1.02 ± 0.05	1.06 ± 0.024	1.04 ± 0.018	1.05 ± 0.022	1.1 ± 0.0026
F8VX04 and related entries (UniProt Q9H2H9)	0.844 ± 0.032	0.892 ± 0.071	0.838 ± 0.02	0.85 ± 0.03	0.805 ± 0.039	0.8 ± 0.056
G3XAH6 and related entries (UniProt P51003)	0.959 ± 0.017	0.966 ± 0.036	0.94 ± 0.018	0.951 ± 0.04	0.9271 ± 0.0066	0.9511 ± 0.007
F8VU39 and related entries (UniProt Q9UIF9)	1.06 ± 0.039	1.1 ± 0.096	1.091 ± 0.0019	1.16 ± 0.088	1.1 ± 0.06	1.15 ± 0.055
F8VXU5 and related entries (UniProt Q9UBQ0)	0.954 ± 0.087	0.959 ± 0.071	0.92 ± 0.057	0.889 ± 0.081	0.929 ± 0.035	0.938 ± 0.086
F8W689 and related entries (UniProt P48382)	0.968 ± 0.047	0.986 ± 0.037	0.985 ± 0.055	0.995 ± 0.052	0.965 ± 0.028	0.952 ± 0.022
E7EQR8 and related entries (UniProt Q9GZM5)	0.981 ± 0.085	1.03 ± 0.05	1.01 ± 0.041	1.07 ± 0.072	1.02 ± 0.04	1.01 ± 0.013
G5E977 and related entries (UniProt Q6XQN6)	0.99 ± 0.016	0.978 ± 0.04	0.962 ± 0.08	0.928 ± 0.035	0.953 ± 0.073	0.958 ± 0.047
F8VVA7 and related entries (UniProt P61923)	1.03 ± 0.1	1.01 ± 0.06	0.958 ± 0.046	1.046 ± 0.0071	0.965 ± 0.067	0.906 ± 0.038
G3V529 and related entries (UniProt Q9GZR7)	1 ± 0.04	1.01 ± 0.02	1.01 ± 0.019	1.02 ± 0.012	1.05 ± 0.027	1.08 ± 0.037
E7EW59 and related entries (UniProt Q9Y467)	1.06 ± 0.046	1.05 ± 0.059	1.03 ± 0.11	0.961 ± 0.013	0.9968 ± 0.0068	1.01 ± 0.064
E9PGT6 and related entries (UniProt Q99627)	1.03 ± 0.022	1.01 ± 0.054	1.02 ± 0.026	1 ± 0.017	1.01 ± 0.014	0.944 ± 0.038
G3V3M6 and related entries (UniProt P27695)	0.957 ± 0.016	0.953 ± 0.038	0.917 ± 0.063	0.959 ± 0.089	0.963 ± 0.058	0.96 ± 0.075
E7EMS2 and related entries (UniProt P61916)	0.921 ± 0.075	0.947 ± 0.011	0.893 ± 0.03	0.977 ± 0.029	0.888 ± 0.012	0.872 ± 0.06
F5H7T0 and related entries (UniProt Q96S38)	1.11 ± 0.048	1.1 ± 0.077	0.971 ± 0.11	1.07 ± 0.093	0.951 ± 0.089	1.02 ± 0.039
E9PMR6 and related entries (UniProt Q9NZN5)	1.05 ± 0.092	0.991 ± 0.048	1.03 ± 0.071	1.02 ± 0.11	0.984 ± 0.092	0.948 ± 0.062
E9PC69 and related entries (UniProt Q7KZI7)	1.2 ± 0.099	1.24 ± 0.13	1.24 ± 0.12	1.19 ± 0.11	1.24 ± 0.11	1.21 ± 0.11
E7ESA6 and related entries (UniProt Q05397)	1.11 ± 0.25	1.18 ± 0.17	1.15 ± 0.22	1.02 ± 0.12	1.15 ± 0.23	1.05 ± 0.15
F8VU90 and related entries (UniProt Q9NYL4)	0.92 ± 0.044	0.837 ± 0.073	0.817 ± 0.014	0.805 ± 0.052	0.874 ± 0.097	0.845 ± 0.099
E9PHV5 and related entries (UniProt P28290)	1.08 ± 0.22	1.16 ± 0.083	1.15 ± 0.054	1.16 ± 0.15	1.12 ± 0.2	1.23 ± 0.12
E5RHA3 and related entries (UniProt Q86X53)	0.96 ± 0.11	0.976 ± 0.062	0.963 ± 0.078	0.954 ± 0.035	0.931 ± 0.062	0.97 ± 0.12
F8W543 and related entries (UniProt P55209)	0.876 ± 0.18	0.907 ± 0.083	0.916 ± 0.047	0.923 ± 0.095	0.931 ± 0.019	0.936 ± 0.017

Pulled one by one from the list above:
Target	NP40-soluble protein abundance (concentration: 1mM)	NP40-soluble protein abundance (concentration: 2mM)	NP40-soluble protein abundance (concentration: 4mM)	NP40-soluble protein abundance (concentration: 6mM)	NP40-soluble protein abundance (concentration: 8mM)	NP40-soluble protein abundance (concentration: 10mM)
G3XAH6 and related entries (UniProt P51003)	0.959 ± 0.017	0.966 ± 0.036	0.94 ± 0.018	0.951 ± 0.04	0.9271 ± 0.0066	0.9511 ± 0.007
E7EMS2 and related entries (UniProt P61916)	0.921 ± 0.075	0.947 ± 0.011	0.893 ± 0.03	0.977 ± 0.029	0.888 ± 0.012	0.872 ± 0.06
